Assay [1] concerns the target GFP-tagged mouse Notch3 intracellular domain (N3ICD), WT (mouse) (UniProt Q61982). As to the kind of experiment: co-IP; GFP-tagged N3ICD (WT, SA or SE) and FLAG-tagged CSL overexpressed in HeLa cells; GFP-trap immunoprecipitation; Western blot.
The target in assay [2] is FLAG-tagged mouse Notch3 intracellular domain (N3ICD) (mouse) (UniProt Q61982). As to the kind of experiment: co-IP; FLAG-tagged N3ICD and His-tagged PIM1 overexpressed in MCF-7 cells, treated with DMSO or 10 μM DHPCC-9; anti-FLAG affinity agarose gel or HisLink resin; Western blot. Background: In western blotting, separated proteins are transferred to a membrane and probed.

Chains of the proteins cited; added tags and fusions are not shown. Lines headed by an entry give the natural chain unless they say otherwise; changes in a name come on top.
UniProt Q61982: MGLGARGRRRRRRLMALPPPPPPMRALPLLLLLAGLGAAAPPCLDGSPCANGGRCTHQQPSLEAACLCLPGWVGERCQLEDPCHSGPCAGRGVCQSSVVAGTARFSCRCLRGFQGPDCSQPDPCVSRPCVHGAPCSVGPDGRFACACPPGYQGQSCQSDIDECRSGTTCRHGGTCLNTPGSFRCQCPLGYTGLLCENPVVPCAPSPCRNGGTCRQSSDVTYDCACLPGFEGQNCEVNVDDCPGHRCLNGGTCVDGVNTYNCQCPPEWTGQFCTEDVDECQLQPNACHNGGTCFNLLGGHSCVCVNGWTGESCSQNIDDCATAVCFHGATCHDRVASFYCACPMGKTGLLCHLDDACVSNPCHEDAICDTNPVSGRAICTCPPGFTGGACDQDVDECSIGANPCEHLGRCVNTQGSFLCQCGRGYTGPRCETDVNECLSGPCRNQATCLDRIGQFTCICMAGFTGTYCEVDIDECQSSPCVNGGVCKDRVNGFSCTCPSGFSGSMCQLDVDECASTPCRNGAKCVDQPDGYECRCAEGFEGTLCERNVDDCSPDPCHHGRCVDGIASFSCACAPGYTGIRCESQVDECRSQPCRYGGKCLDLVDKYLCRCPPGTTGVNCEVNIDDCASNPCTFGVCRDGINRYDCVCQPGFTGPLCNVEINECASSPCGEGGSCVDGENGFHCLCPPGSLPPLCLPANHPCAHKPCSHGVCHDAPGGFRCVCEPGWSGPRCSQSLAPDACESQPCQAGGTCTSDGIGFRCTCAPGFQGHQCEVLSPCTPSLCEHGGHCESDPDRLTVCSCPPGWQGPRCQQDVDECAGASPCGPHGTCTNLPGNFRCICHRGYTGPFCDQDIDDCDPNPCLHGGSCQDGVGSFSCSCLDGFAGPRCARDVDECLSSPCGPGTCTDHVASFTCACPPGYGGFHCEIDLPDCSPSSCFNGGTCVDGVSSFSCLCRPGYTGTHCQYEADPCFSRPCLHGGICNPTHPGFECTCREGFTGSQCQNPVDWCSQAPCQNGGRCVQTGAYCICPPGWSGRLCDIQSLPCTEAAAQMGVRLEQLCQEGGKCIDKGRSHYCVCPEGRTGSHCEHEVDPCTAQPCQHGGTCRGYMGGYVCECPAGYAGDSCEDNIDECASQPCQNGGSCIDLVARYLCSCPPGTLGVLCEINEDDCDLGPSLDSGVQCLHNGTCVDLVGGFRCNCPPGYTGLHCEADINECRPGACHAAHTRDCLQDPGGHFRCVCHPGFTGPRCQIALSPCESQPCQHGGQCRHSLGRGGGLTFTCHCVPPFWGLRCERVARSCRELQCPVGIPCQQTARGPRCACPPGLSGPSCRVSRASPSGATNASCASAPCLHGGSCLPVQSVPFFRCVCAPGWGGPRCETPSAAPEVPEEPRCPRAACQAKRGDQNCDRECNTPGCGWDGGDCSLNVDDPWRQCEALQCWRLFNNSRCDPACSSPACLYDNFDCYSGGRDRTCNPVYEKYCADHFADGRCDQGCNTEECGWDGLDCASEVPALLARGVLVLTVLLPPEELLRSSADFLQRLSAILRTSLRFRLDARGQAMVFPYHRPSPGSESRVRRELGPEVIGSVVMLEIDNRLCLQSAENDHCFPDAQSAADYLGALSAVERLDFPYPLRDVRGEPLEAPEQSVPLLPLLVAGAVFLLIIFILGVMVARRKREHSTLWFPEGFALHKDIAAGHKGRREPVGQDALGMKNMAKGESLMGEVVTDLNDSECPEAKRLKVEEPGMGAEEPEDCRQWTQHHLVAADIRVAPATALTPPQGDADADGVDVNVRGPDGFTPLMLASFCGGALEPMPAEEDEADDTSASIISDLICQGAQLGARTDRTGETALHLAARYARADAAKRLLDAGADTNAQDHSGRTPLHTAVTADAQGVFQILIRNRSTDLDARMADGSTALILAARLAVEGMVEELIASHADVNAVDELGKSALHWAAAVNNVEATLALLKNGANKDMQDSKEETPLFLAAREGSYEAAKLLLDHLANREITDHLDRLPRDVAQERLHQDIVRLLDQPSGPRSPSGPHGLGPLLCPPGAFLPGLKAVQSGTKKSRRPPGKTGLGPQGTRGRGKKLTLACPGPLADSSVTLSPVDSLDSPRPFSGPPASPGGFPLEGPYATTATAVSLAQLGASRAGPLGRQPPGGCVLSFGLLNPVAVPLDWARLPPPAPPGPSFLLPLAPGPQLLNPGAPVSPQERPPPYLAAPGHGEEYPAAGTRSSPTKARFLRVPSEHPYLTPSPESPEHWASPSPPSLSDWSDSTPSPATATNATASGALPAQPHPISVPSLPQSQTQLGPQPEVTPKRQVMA
UniProt Q9UM47: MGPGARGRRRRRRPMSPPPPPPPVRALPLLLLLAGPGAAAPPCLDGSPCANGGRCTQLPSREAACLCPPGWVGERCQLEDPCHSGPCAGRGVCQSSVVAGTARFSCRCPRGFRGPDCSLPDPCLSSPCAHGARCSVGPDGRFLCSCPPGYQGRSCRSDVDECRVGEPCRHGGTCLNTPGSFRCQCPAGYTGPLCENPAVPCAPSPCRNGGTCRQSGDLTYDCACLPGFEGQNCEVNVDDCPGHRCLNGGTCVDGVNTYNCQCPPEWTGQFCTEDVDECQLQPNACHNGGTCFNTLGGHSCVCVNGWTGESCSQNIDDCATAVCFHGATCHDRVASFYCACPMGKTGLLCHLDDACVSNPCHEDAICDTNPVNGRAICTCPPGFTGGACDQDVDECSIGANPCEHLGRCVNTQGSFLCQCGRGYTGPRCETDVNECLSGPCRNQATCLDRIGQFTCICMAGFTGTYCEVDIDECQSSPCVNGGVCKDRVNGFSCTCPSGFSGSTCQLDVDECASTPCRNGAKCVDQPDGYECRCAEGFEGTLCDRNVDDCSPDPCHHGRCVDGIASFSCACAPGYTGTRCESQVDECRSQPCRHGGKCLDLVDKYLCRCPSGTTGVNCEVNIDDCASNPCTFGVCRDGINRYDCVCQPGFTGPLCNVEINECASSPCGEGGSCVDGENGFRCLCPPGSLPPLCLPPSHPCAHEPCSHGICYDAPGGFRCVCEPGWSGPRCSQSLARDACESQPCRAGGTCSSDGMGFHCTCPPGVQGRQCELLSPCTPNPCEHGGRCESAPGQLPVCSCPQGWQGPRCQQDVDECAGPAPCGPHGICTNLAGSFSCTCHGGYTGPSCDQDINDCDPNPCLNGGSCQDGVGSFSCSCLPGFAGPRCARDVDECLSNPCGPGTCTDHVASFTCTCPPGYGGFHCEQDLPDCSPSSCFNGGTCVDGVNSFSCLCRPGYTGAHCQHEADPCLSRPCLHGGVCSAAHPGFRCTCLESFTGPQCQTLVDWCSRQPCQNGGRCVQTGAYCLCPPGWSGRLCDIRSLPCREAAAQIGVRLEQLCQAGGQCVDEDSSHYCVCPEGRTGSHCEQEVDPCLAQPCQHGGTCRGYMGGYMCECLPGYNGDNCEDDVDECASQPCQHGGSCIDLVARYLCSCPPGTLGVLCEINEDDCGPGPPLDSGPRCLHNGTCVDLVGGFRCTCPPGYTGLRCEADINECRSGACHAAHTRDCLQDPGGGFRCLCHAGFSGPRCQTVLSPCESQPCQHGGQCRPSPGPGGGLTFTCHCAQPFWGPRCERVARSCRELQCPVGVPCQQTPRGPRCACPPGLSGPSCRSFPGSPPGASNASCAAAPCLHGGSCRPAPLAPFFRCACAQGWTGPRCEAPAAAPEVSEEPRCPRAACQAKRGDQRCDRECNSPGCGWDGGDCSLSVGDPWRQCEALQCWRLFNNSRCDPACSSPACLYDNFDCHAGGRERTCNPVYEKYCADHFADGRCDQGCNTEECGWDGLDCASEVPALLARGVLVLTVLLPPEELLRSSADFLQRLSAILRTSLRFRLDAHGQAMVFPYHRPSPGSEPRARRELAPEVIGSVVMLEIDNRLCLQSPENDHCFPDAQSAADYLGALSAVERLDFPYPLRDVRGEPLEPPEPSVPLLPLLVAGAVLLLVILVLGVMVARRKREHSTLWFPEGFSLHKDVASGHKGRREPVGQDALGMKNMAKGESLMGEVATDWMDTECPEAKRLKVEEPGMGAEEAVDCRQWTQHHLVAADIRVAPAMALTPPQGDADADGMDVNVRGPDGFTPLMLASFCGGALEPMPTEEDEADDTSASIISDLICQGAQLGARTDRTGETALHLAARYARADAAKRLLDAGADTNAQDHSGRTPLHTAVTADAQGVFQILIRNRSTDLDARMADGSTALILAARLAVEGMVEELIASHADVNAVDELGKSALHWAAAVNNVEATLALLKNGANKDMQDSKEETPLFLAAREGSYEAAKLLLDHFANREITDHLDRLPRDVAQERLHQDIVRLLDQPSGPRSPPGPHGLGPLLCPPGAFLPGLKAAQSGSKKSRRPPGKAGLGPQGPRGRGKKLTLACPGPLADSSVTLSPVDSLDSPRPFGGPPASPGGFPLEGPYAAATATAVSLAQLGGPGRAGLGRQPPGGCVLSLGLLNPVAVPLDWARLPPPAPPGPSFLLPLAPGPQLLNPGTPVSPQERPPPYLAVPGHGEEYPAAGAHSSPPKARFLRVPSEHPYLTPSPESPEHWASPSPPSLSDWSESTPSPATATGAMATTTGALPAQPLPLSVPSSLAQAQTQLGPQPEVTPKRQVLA
UniProt P31266: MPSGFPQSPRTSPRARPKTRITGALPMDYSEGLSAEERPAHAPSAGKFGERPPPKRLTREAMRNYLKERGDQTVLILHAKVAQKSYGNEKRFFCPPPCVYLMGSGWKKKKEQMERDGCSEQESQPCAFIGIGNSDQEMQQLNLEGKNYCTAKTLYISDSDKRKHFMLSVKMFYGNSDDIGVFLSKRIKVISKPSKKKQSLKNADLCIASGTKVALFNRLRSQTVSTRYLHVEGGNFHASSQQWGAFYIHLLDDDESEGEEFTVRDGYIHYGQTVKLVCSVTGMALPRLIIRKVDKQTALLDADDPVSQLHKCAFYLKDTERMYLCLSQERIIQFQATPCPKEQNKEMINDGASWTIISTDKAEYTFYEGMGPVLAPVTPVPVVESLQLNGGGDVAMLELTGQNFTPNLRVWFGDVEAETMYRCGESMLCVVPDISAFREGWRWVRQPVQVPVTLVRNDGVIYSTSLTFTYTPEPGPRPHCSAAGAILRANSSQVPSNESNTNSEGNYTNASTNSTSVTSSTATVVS
UniProt P11309: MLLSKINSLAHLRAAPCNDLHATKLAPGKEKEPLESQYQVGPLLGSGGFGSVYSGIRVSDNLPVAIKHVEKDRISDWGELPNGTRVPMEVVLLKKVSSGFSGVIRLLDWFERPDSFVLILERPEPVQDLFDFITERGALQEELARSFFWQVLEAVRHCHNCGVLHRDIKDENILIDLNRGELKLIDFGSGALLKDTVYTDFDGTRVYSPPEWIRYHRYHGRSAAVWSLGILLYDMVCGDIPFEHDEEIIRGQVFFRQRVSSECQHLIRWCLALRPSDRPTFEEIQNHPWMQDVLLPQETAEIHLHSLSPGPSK

The target of assay [3] is GFP-tagged mouse Notch3 intracellular domain (N3ICD), WT (mouse) (UniProt Q61982). The assay can be described thus: FRET or BRET; fluorescence-lifetime imaging of RFP-tagged PIM1 and GFP-tagged N3ICD transiently overexpressed in MCF-7 cells. (Bioluminescence resonance energy transfer reports proximity on the nanometre scale.)
In assay [4] the target is endogenously expressed human NOTCH3 intracellular domain (N3ICD) (human) (UniProt Q9UM47). The assay can be described thus: proximity ligation; endogenous proteins in MCF-7 cells; one PIM1 and two different N3ICD antibodies.

No constants are given. Whether binding was seen depends on the method and setting. Binding seen in cells or lysates may run through a third protein. A result given as binding can be weak or reduced; the word gives no strength.

The values below come from paper PMC8100066.

Turning to “FLAG-tagged CSL (from UniProt P31266 1-526)”, the binding result in assay [1] is given as “binds”.

Turning to “His-tagged human PIM1 (from UniProt P11309 1-313) (enzyme)”, the binding result in assay [2] was “binds”.

Regarding “RFP-tagged human PIM1 (from UniProt P11309 1-313) (enzyme)”, the binding result in assay [3] is on record as “binds”.

Consider “endogenously expressed human PIM1 (from UniProt P11309 1-313) (enzyme)”, for which the binding entry in assay [4] is recorded as “binds”.
